## Results of single-concentration screens

From ChEMBL document CHEMBL3988442, “University of Dundee, Small-Polar-MMV Screening Library” (2021).

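Assay of Toxoplasma gondii numbers, read through their beta-galactosidase reporter with a colour substrate. Compounds at 10 µM. Higher reads as fewer parasites (inferred from which compounds were picked for retests). About 67,000 compounds were tested under these conditions; 0.38% (about 260) showed 50% or more at least once.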

Each number is a percent effect as filed.
How 0% and 100% were set is not recorded. Most values in the screen are low, and negative values occur.
The compounds are a random part of those screened.

CN(C)CCOCC1CN(Cc2cccs2)Cc2ccnn2C1.O=C(O)C(F)(F)F.O=C(O)C(F)(F)F.O=C(O)C(F)(F)F (centres unmarked) read 8.977%.
[H][C@@]12CN(Cc3ccc(OC)cc3)C[C@]1([H])OCC(=O)N2CC(N)=O read -8.106%.
O=C1CCC(C(=O)Nc2cnn(-c3ccccc3Cl)c2)N1 (centres unmarked) read -1.846%.
Cn1c(CNCC2CCCN2c2cccnn2)nc2ccccc21 (centres unmarked) read -6.25%.
CS(=O)(=O)NC1CCN(C(=O)NCCc2ccccc2F)CC1 read 4.093%.
O=C(COCc1nc(-c2ccncc2)no1)N1CCOCC1 read 16.01%.
Cc1ccnc(NC(=O)c2ccc(Cl)o2)c1 read 2.735%.
CNC(=O)c1sc2ccccc2c1C1CCN(c2nc(C)cc(C)n2)C1 (centres unmarked) read 23.17%.
CN1CCN(C(=O)CCc2cccnc2)c2ccc(F)cc21 read -5.897%.
CC(C)COCCC(=O)NS(=O)(=O)c1ccc(Cl)s1 read -4.789%.
CC(C)c1cc2c(s1)NC(c1ccccn1)NC2=O (centres unmarked) read -1.679%.
O=C(CCc1ccncc1)N1CCCC(n2cccn2)C1 (centres unmarked) read -14.99%.
c1ccc(-c2nnc(N3CCCC4(CCOC4)C3)s2)cc1 (centres unmarked) read 2.879%.
CC(C)Nc1ncnc2c1CCN(C(=O)Cc1ccccn1)CC2.O=C(O)C(F)(F)F read -8.249%.
CN(C)c1nc(N)nc(CN2CCCC2c2ccsc2)n1 (centres unmarked) read 5.581%.
Cc1nc2c(c(C)c1CC(=O)NC(C)c1ccccc1)c(=O)[nH]n2C (centres unmarked) read -1.42%.
Cc1nc(CN2CCN(S(=O)(=O)N3CCOCC3)CC2)oc1C read -0.1147%.
CC1CN(C(=O)CN(Cc2ccccc2Br)C2CC2)CCO1 (centres unmarked) read -2.54%.
Cc1cnn(CC2CCN(CC(O)CN3CCC(C)CC3)CC2)c1 (centres unmarked) read -2.259%.
COc1cc(NC(=O)c2cccc(N(C)C)c2)cc(OC)c1 read 5.418%.
CC(C)(C)NC(=O)Cn1c(=O)n(Cc2ccco2)c2ncccc21 read -6.291%.
O=C(NC1CCCN(CCCc2ccccc2)C1)c1ccncc1 (centres unmarked) read 12.51%.
CCN(CC)CCCN1CCC(NC(=O)OC(C)(C)C)CC1 read 7.287%.
Cc1ccc(OCCCNC(=O)Cc2nc3ncccn3n2)cc1 read 1.801%.
CC(=O)NCCNC(=O)NCc1ccc(Br)cc1Cl read -6.155%.
Cc1ccc(CNC(=O)c2oc3ccccc3c2CN(C)C)n1C read 2.249%.
Cc1[nH]/c(=N\C(=O)c2csc(NC3CC3)n2)sc1C read -0.3064%.
CCCn1cnnc1CNC(=O)CC1C(=O)NCCN1CC(C)(C)C (centres unmarked) read -4.592%.
c1cnn(CC2CCCCN2c2ncnc3ccsc23)c1 (centres unmarked) read 5.79%.
CCCOCC(=O)NS(=O)(=O)c1ccc2c(c1)OCCO2 read -2.276%.
O=C(O)C(F)(F)F.O=C(O)C(F)(F)F.[H][C@@]12CN(Cc3ccco3)C[C@H](C(=O)Nc3cccnc3)[C@]1([H])CCO2 read -30.57%.
Cc1ccc(OCc2occc2C(=O)N2CCCCC(N)C2)cc1 (centres unmarked) read -3.469%.
Cl.[H][C@@]12CCN(C3CCCC3)C[C@]1([H])[C@@H](c1ccsc1)CN2C(=O)C(C)(C)C read 2.584%.
Cn1cc(S(=O)(=O)NCCc2ccsc2)cn1 read -13.03%.
Cc1ccccc1-c1cncc(C2CCN(C(=O)CN(C)C)CC2)n1 read 14.93%.
Cc1cnn(CC2CN(Cc3cccc(OCC(N)=O)c3)CCO2)c1 (centres unmarked) read 0%.
CC(C)c1nc(C2CCCN2C(=O)c2ccc(N(C)C)nn2)no1 (centres unmarked) read 1.292%.
Cc1cnn(CC2CCCCN2C(=O)c2ccc(NC3CC3)nc2)c1 (centres unmarked) read -27.62%.
Cc1ccsc1-c1nc(CN(C)Cc2cc[nH]n2)c(C)o1 read -0.2758%.
COc1ccc(C(C)Nc2nc3c(C)nn(C)c3c(=O)n2C)cc1 (centres unmarked) read 18.77%.

Some entries from above, unchanged:

* [H][C@@]12CN(Cc3ccc(OC)cc3)C[C@]1([H])OCC(=O)N2CC(N)=O : -8.106%
* Cn1cc(S(=O)(=O)NCCc2ccsc2)cn1 : -13.03%
* CN1CCN(C(=O)CCc2cccnc2)c2ccc(F)cc21 : -5.897%